From the supplement of paper PMC10338343 come the findings set out here.

± gives the standard deviation. The list shows a part of the results. The uncertainty is large for many entries.

In the first assay the test system is EfPiwi piRISC loaded with L1MC piRNA (26 nt). The assay can be described thus: pre-steady-state target cleavage rate (min^-1); guide: L1MC piRNA 5'p-UAACUAAAUACUAUGCAAGCUGUAGG; MIWI and MILI are mouse PIWI proteins and EfPiwi is from a freshwater sponge; tags in brackets are library labels; higher = faster piRNA-guided slicing of the target. Conditions: auxiliary factor: 500 nM Ephydatia muelleri Gtsf1. The procedure, abridged: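 For Cleave-'n-Seq, a transcribed, DNA-blocked target RNA library […] met 1 nM active affinity-purified piRISC with one synthetic guide at 33 °C for 0–8 or 0–960 min in HEPES–potassium acetate buffer, with or without 500 nM GTSF1 partner protein. Uncleaved targets were sequenced and normalised to depth and weakly complementary targets, with three trials pooled and k3 capped at 0.0001 min^-1. A burst-and-steady-state fit supplied the pre-steady-state cleavage rate.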
Take UCCUGGAUGUCCAUGCAUAGUAUUAAGUUA: the “pre-steady-state target cleavage rate” value was determined as 0.00186 ± 0.006.

For UCCUGGAUGUCGUUGCAUAAGUAUUUAGUUA, the “pre-steady-state target cleavage rate” value is 0.000254 ± 0.021.

Regarding UCCUGGAUGUCGAAGCAUAGUAUUUAGAUUA, the “pre-steady-state target cleavage rate” value was found to be 0.000755 ± 0.0065.

Consider UCCUGGAUGUCGAACCAUAGUAUUUAGGUA, for which the “pre-steady-state target cleavage rate” value was less than 0.0001.

UCCUGGAUGUCGUUGCAUACUAAUUAGUUA: the “pre-steady-state target cleavage rate” value was 0.000318 ± 0.0092.

For UCCUGGAUGUCGAACGUAAUUAUUUAGUUA, the “pre-steady-state target cleavage rate” value was less than 0.0001.

On to UCCUGCUACAGCUUGCAUAGUAUAUAGAAA, for which the “pre-steady-state target cleavage rate” value was found to be 0.00298 ± 0.0025.

Turning to UCCUGGAUGUCGUUGCUUAGUAUUUUGUUA, the “pre-steady-state target cleavage rate” value stood at 0.000281 ± 0.012.

UCCUGGAUGUCGAUGCAUAGUAUUUUCUUA: the “pre-steady-state target cleavage rate” value worked out at 0.000256 ± 0.012.

For the sequence UCCUGGAACAGCUUGCUAUGUAUUUAGAAA, the “pre-steady-state target cleavage rate” value was found to be 0.00139 ± 0.0067.

In the case of UCCUGGUACAGGUUGCAUAGUAUUUACAAA, the “pre-steady-state target cleavage rate” value was 0.00293 ± 0.0033.

Consider UCCUGGAUGUCGAACGUUAGUUAAUAGUUA, for which the “pre-steady-state target cleavage rate” value worked out at 0.00015 ± 0.037.

Take UCCUGGAUGUCGAAGCAUAGUACUUUAGUUA: the “pre-steady-state target cleavage rate” value was found to be 0.00136 ± 0.006.

Still in this assay, the particulars now being: auxiliary factor: none (no Gtsf1).
Regarding UCCUGGAUGUCGAACGAUGGUAUUUAGUUA, the “pre-steady-state target cleavage rate” value is 0.00016 ± 0.037.

Turning to UCCUGGAUGUCGAUGGAUAGUAAUUAGUUA, the “pre-steady-state target cleavage rate” value stood at 0.00029 ± 0.022.

UCCUGCUACAGCUUGCAUAGAUUUUACAAA: the “pre-steady-state target cleavage rate” value worked out at 0.000327 ± 0.018.
